# Assay results: the supplement of paper PMC8728848
# This is one part of the list.
# Columns and labels:
# Assay in all cases: glycan array binding signal (z-score within array); higher = stronger binding
# Settings in all cases: glycan notation: IUPAC condensed, linker removed
# GalNAc3S(b1-4)GlcNAc3S = target: GalNAc3S(b1-4)GlcNAc3S
# In short: (§1)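 Arrays were curated from the Consortium for Functional Glycomics database, 3228 in total, and kept only where the protein sequence was available. Binding is expressed as a within-array Z-score. This score was averaged across arrays of the same protein sequence at different concentrations or buffers and across linkers, and negative values can be read as non-binding.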
# [1] = target: GalNAc3S(b1-4)[Fuc(a1-3)]GlcNAc
# In short: as §1
# GalNAc4S6S(b1-4)GlcNAc = target: GalNAc4S6S(b1-4)GlcNAc
# In short: as §1
# GalNAc6S(b1-4)GlcNAc = target: GalNAc6S(b1-4)GlcNAc
# In short: as §1
# Glc(a1-4)Glc = target: Glc(a1-4)Glc
# In short: as §1
# [2] = target: Glc(a1-4)Glc(a1-4)Glc(a1-4)Glc
# In short: as §1
# Glc(a1-6)Glc(a1-6)Glc = target: Glc(a1-6)Glc(a1-6)Glc
# In short: as §1
# [3] = target: Glc(a1-6)Glc(a1-6)Glc(a1-6)Glc
# In short: as §1
# Glc(b1-4)Glc = target: Glc(b1-4)Glc
# In short: as §1
# Glc(b1-6)Glc = target: Glc(b1-6)Glc
# In short: as §1
# GlcA(b1-3)Gal = target: GlcA(b1-3)Gal
# In short: as §1
# GlcA(b1-3)GlcNAc = target: GlcA(b1-3)GlcNAc
# In short: as §1
# GlcA(b1-6)Gal = target: GlcA(b1-6)Gal
# In short: as §1
# [4] = target: GlcA3S(b1-3)Gal(b1-4)GlcNAc(b1-2)Man
# In short: as §1
# [5] = target: GlcA3S(b1-3)Gal(b1-4)GlcNAc(b1-3)Gal(b1-4)Glc
# In short: as §1
# [6] = target: GlcNAc(a1-3)Gal(b1-4)GlcNAc
# In short: as §1
# [7] = target: GlcNAc(a1-4)Gal(b1-3)GlcNAc
# In short: as §1
# [8] = target: GlcNAc(a1-4)Gal(b1-4)GalNAc
# In short: as §1
# [9] = target: GlcNAc(a1-4)Gal(b1-4)GlcNAc
# In short: as §1
# [10] = target: GlcNAc(a1-4)Gal(b1-4)GlcNAc(b1-3)Gal(b1-4)Glc
# In short: as §1
# [11] = target: GlcNAc(a1-4)Gal(b1-4)GlcNAc(b1-3)Gal(b1-4)GlcNAc
# In short: as §1
# [12] = target: GlcNAc(a1-4)Gal(b1-4)GlcNAc(b1-3)Gal(b1-4)GlcNAc(b1-3)Gal(b1-4)GlcNAc
# In short: as §1
# [13] = target: GlcNAc(a1-4)Gal(b1-4)GlcNAc(b1-3)Gal(b1-4)[Fuc(a1-3)]GlcNAc(b1-3)Gal(b1-4)[Fuc(a1-3)]GlcNAc
# In short: as §1
# [14] = target: GlcNAc(a1-6)Gal(b1-4)GlcNAc
# In short: as §1
# [15] = target: GlcNAc(b1-2)Gal(b1-3)GalNAc
# In short: as §1
# [16] = target: GlcNAc(b1-2)Man(a1-3)[GlcNAc(b1-2)Man(a1-6)]Man(b1-4)GlcNAc(b1-4)GlcNAc
# In short: as §1
# [17] = target: GlcNAc(b1-2)Man(a1-3)[GlcNAc(b1-2)Man(a1-6)]Man(b1-4)GlcNAc(b1-4)[Fuc(a1-6)]GlcNAc
# In short: as §1
# [18] = target: GlcNAc(b1-2)Man(a1-3)[GlcNAc(b1-4)][GlcNAc(b1-2)Man(a1-6)]Man(b1-4)GlcNAc(b1-4)GlcNAc
# In short: as §1
# [19] = target: GlcNAc(b1-2)Man(a1-3)[GlcNAc(b1-4)][GlcNAc(b1-2)Man(a1-6)]Man(b1-4)GlcNAc(b1-4)[Fuc(a1-6)]GlcNAc
# In short: as §1
# [20] = target: GlcNAc(b1-2)[GlcNAc(b1-4)]Man(a1-3)[GlcNAc(b1-2)Man(a1-6)]Man(b1-4)GlcNAc(b1-4)GlcNAc
# In short: as §1
# [21] = target: GlcNAc(b1-2)[GlcNAc(b1-4)]Man(a1-3)[GlcNAc(b1-4)][GlcNAc(b1-2)Man(a1-6)]Man(b1-4)GlcNAc(b1-4)GlcNAc
# In short: as §1
# [22] = target: GlcNAc(b1-2)[GlcNAc(b1-4)]Man(a1-3)[GlcNAc(b1-4)][GlcNAc(b1-2)[GlcNAc(b1-6)]Man(a1-6)]Man(b1-4)GlcNAc(b1-4)GlcNAc
# In short: as §1
# [23] = target: GlcNAc(b1-2)[GlcNAc(b1-4)]Man(a1-3)[GlcNAc(b1-4)][GlcNAc(b1-2)[GlcNAc(b1-6)]Man(a1-6)]Man(b1-4)GlcNAc(b1-4)[Fuc(a1-6)]GlcNAc
# In short: as §1
# [24] = target: GlcNAc(b1-2)[GlcNAc(b1-6)]Man(a1-6)[GlcNAc(b1-2)Man(a1-3)]Man(b1-4)GlcNAc(b1-4)GlcNAc
# In short: as §1
# [25] = target: GlcNAc(b1-2)[GlcNAc(b1-6)]Man(a1-6)[GlcNAc(b1-2)Man(a1-3)]Man(b1-4)GlcNAc(b1-4)[Fuc(a1-6)]GlcNAc
# In short: as §1
# [26] = target: GlcNAc(b1-2)[GlcNAc(b1-6)]Man(a1-6)[GlcNAc(b1-4)][GlcNAc(b1-2)Man(a1-3)]Man(b1-4)GlcNAc(b1-4)GlcNAc
# In short: as §1
# GlcNAc(b1-3)Fuc = target: GlcNAc(b1-3)Fuc
# In short: as §1
# GlcNAc(b1-3)Gal = target: GlcNAc(b1-3)Gal
# In short: as §1
binder,measurement,setting,value
Epa20 (Candida glabrata) (protein) MGSSHHHHHHSSGLVPRGSHMASSNIPNNYPLGCSNKYSGHLPGLKMELYSYNYVNPRHPDPQNPGKLDQLYDPNLLGTYECFDSSYKDINYPRVGYKSKTLIGRSDGVSGILNFNFVPPWGCMPQKGQLPPAYNFKSNITLSNFTMILFGYFKPKISGNHIFSLHGDDLIYLNFGAGNAFDCCRQESSADNFGNYQAFSLWGINWEKKTLTVYLDMNTYYPIRIFYNNRDYQAIFNFSFKTEFDSSPVIDFQDYFFFLRDIDGGCPGEV,glycan array binding signal (z-score),GalNAc3S(b1-4)GlcNAc3S,0.034
same,glycan array binding signal (z-score),[1],-0.146
same,glycan array binding signal (z-score),GalNAc4S6S(b1-4)GlcNAc,0.033
same,glycan array binding signal (z-score),GalNAc6S(b1-4)GlcNAc,0.304
same,glycan array binding signal (z-score),Glc(a1-4)Glc,-0.316
same,glycan array binding signal (z-score),[2],0.201
same,glycan array binding signal (z-score),Glc(a1-6)Glc(a1-6)Glc,-0.554
same,glycan array binding signal (z-score),[3],-0.223
same,glycan array binding signal (z-score),Glc(b1-4)Glc,-0.657
same,glycan array binding signal (z-score),Glc(b1-6)Glc,-0.84
same,glycan array binding signal (z-score),GlcA(b1-3)Gal,-0.651
same,glycan array binding signal (z-score),GlcA(b1-3)GlcNAc,0.119
same,glycan array binding signal (z-score),GlcA(b1-6)Gal,-0.289
same,glycan array binding signal (z-score),[4],-0.136
same,glycan array binding signal (z-score),[5],-0.269
same,glycan array binding signal (z-score),[6],-0.55
same,glycan array binding signal (z-score),[7],-0.724
same,glycan array binding signal (z-score),[8],0.06
same,glycan array binding signal (z-score),[9],-0.461
same,glycan array binding signal (z-score),[10],-0.477
same,glycan array binding signal (z-score),[11],-0.018
same,glycan array binding signal (z-score),[12],-0.453
same,glycan array binding signal (z-score),[13],0.435
same,glycan array binding signal (z-score),[14],-0.743
same,glycan array binding signal (z-score),[15],-0.506
same,glycan array binding signal (z-score),[16],-0.373
same,glycan array binding signal (z-score),[17],-0.287
same,glycan array binding signal (z-score),[18],-0.224
same,glycan array binding signal (z-score),[19],-0.626
same,glycan array binding signal (z-score),[20],-0.31
same,glycan array binding signal (z-score),[21],-0.435
same,glycan array binding signal (z-score),[22],-0.462
same,glycan array binding signal (z-score),[23],-0.455
same,glycan array binding signal (z-score),[24],-0.647
same,glycan array binding signal (z-score),[25],-0.537
same,glycan array binding signal (z-score),[26],-0.789
same,glycan array binding signal (z-score),GlcNAc(b1-3)Fuc,-0.013
same,glycan array binding signal (z-score),GlcNAc(b1-3)Gal,-0.753

# Rewritten tab-delimited: entries from further up
binder	measurement	setting	value
Epa20 (Candida glabrata) (protein) MGSSHHHHHHSSGLVPRGSHMASSNIPNNYPLGCSNKYSGHLPGLKMELYSYNYVNPRHPDPQNPGKLDQLYDPNLLGTYECFDSSYKDINYPRVGYKSKTLIGRSDGVSGILNFNFVPPWGCMPQKGQLPPAYNFKSNITLSNFTMILFGYFKPKISGNHIFSLHGDDLIYLNFGAGNAFDCCRQESSADNFGNYQAFSLWGINWEKKTLTVYLDMNTYYPIRIFYNNRDYQAIFNFSFKTEFDSSPVIDFQDYFFFLRDIDGGCPGEV	glycan array binding signal (z-score)	[6]	-0.55
same	glycan array binding signal (z-score)	[17]	-0.287
